Measurements as given in PubChem BioAssay AID540275 (National Center for Advancing Translational Sciences (NCATS), 2011).
In all, about 320,000 compounds went through this assay and about 620 (0.19%) were called active. Inconclusive results, whose numbers are uncertain, are shown with a selection of clear calls. Rule as the data show it: active = activation above about 80%; inconclusive = between about 30% and that limit; inactive = weaker than that.

Sequences of proteins named here, by UniProt entry; tags and fusion partners are left off.
UniProt Q8NER1, whole entry, looked up: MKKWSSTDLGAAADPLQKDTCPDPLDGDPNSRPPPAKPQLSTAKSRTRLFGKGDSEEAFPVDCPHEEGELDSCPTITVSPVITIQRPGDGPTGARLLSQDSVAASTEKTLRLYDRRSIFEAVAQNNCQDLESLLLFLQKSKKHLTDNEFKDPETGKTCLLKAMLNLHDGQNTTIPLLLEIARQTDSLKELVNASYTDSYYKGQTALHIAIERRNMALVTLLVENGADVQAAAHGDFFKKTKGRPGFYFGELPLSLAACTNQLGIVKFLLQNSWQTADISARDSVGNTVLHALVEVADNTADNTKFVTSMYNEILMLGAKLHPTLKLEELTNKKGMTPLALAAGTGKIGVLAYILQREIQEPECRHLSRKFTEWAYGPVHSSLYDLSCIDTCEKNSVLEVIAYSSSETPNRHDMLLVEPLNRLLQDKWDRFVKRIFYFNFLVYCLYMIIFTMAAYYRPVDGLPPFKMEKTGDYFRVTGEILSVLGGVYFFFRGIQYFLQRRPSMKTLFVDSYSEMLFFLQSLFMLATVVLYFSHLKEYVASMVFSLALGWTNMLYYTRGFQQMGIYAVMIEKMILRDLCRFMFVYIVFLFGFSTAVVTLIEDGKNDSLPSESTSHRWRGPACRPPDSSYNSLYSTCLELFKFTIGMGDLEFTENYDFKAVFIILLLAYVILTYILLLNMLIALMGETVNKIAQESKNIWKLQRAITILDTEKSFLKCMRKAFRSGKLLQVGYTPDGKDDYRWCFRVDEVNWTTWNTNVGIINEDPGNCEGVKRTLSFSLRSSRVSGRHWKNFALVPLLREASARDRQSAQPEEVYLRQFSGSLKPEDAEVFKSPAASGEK

Molecular target: Transient receptor potential cation channel subfamily V member 1 (Homo sapiens) (UniProt Q8NER1)
Test: HTS Assay for Compounds that Act as Agonists of the Vanilloid Receptor 1; also: 0% is about no effect
Details: TRPV1-expressing cells, Fluo-8 calcium influx, agonist mode; at 8.33 µM, hits give high values
Method in brief: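 Cells expressing TRPV1 were dye-loaded with Fluo-8 and read kinetically: 10 s baseline, 3 min after compound (agonist portion), then 2 min after EC20 capsaicin (allosteric enhancer portion). Calcium-bound dye fluorescence at 480/520 nm.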

Row | SMILES | activation
1 | COCCN(C(=O)COC(=O)Cc1cccc(OC)c1)c1c(N)n(CC(C)C)c(=O)[nH]c1=O | inactive: 0.0856%
2 | S=c1[nH]nc(Cc2ccccc2)n1Cc1ccco1 | inactive: 4.71%
3 | CCOc1ccccc1N1CCN(C(=O)c2c(-c3ccccc3Cl)noc2C)CC1 | inconclusive: 35.3%
4 | Oc1ccccc1N1CCN(C(=S)NCCc2ccccc2)CC1 | inconclusive: 59.1%
5 | CC(=O)NCCC(=O)Nc1sc2c(c1-c1nc3ccccc3[nH]1)CCCC2 | inconclusive: 57.4%
6 | CCOC(=O)N1CCN(C(=S)NC(=O)c2cc(Br)ccc2Cl)CC1 | inactive: 0.141%
7 | CCOc1ccc(S(=O)(=O)Nc2cnc3ccccc3c2)cc1 | inactive: 0.147%
8 | NC(=O)C1CCN(C(=O)/C=C/c2cc(Br)ccc2F)CC1 | inconclusive: 31.2%
9 | O=C(COC(=O)C1(c2ccc(F)cc2)CCCC1)N1CCOCC1 | inconclusive: 43.8%
10 | CC1=CCC2C(=O)N(c3ccc(C(=O)Nc4ccccc4Cl)cc3)C(=O)C2C1 (stereo unspecified) | inconclusive: 35.1%
11 | CC(=O)c1cccc(NC(=O)c2ccc(-c3ccccc3[N+](=O)[O-])o2)c1 | inconclusive: 43.6%
12 | CN(CC(=O)Nc1ccc(SC(F)F)cc1)C1CCCCC1 | inconclusive: 39.4%
13 | Cc1ccc(NC(=O)c2cc3cccc([N+](=O)[O-])c3[nH]2)cc1 | inconclusive: 45.1%
14 | O=C(CCCCCCCCN1C(=O)c2ccccc2C1=O)N1CCOCC1 | inconclusive: 52.7%
15 | O=C(/C=C/c1ccc(-c2ccccc2[N+](=O)[O-])o1)c1ccc(F)cc1 | inconclusive: 32.3%
16 | CCCCSCCCNC(=O)Nc1cccc(OC)c1 | active: 83.3%
17 | COc1ccccc1OCC(=O)N1CCCC(Nc2ccc(C)c(C)c2)C1 (stereo unspecified) | inconclusive: 63.6%
18 | CCOC(=O)c1ccc2nc3c(cc2c1)CCS3 | inconclusive: 41.9%
19 | CC(C)(C)NC(=O)CCN(/N=C/c1ccccc1O)C1=NS(=O)(=O)c2ccccc21 | inconclusive: 56.2%
20 | COc1cccc(-c2nnc3n2N=C(c2cc(OC)ccc2OC)CS3)c1 | inconclusive: 41%
21 | Cc1cc(C(C)(C)C)cc(C)c1CCNC(=O)c1ccc[n+]([O-])c1 | inconclusive: 60.2%
22 | CCOc1ccc(C(CCc2ccccc2)NC(=O)c2ccccc2F)cc1OCC (stereo unspecified) | inconclusive: 53.3%
23 | CCOC(=O)C1=C(c2ccccc2)OC(N)=C(C#N)C1C(C)C (stereo unspecified) | inconclusive: 52.5%

A draw from above in order of formula weight, smallest number first.
Row | SMILES | activation
4 | Oc1ccccc1N1CCN(C(=S)NCCc2ccccc2)CC1 | inconclusive: 59.1%
10 | CC1=CCC2C(=O)N(c3ccc(C(=O)Nc4ccccc4Cl)cc3)C(=O)C2C1 (stereo unspecified) | inconclusive: 35.1%
6 | CCOC(=O)N1CCN(C(=S)NC(=O)c2cc(Br)ccc2Cl)CC1 | inactive: 0.141%

Shown tab-delimited: 3 of the compounds above.
Row	SMILES	activation
2	S=c1[nH]nc(Cc2ccccc2)n1Cc1ccco1	inactive: 4.71%
5	CC(=O)NCCC(=O)Nc1sc2c(c1-c1nc3ccccc3[nH]1)CCCC2	inconclusive: 57.4%
23	CCOC(=O)C1=C(c2ccccc2)OC(N)=C(C#N)C1C(C)C (stereo unspecified)	inconclusive: 52.5%

Later entries.

Row | SMILES | activation
24 | CCOP(=O)(OCC)C(NCc1ccccc1)c1ccc(Br)cc1 (stereo unspecified) | inconclusive: 47.9%
25 | CNc1oc(Cc2cccc3ccccc23)nc1C#N | inconclusive: 36.9%
26 | COc1ccc2c(C)c(C(=O)N3CCN(Cc4ccccc4)CC3)oc2c1 | inactive: 24.8%
27 | COc1cnc(-c2ccccn2)nc1Oc1ccc(Cl)cc1 | inactive: -5.97%
28 | O=C1CN(C(=O)COc2ncnc3ccccc23)c2ccccc2N1 | inactive: -0.725%
29 | CCCCn1c(CCNC(=O)c2cccs2)nc2ccccc21 | inconclusive: 43.8%
30 | Cc1ccc(C(=O)NCC(=O)OCC(=O)NC2CCCCCCC2)cc1 | inconclusive: 32.9%
31 | CCn1c(CNC(=O)c2ccccc2F)cc2cc(C)ccc21 | inconclusive: 41.9%
32 | Cc1ccc(-c2cc(C(=O)N(C)Cc3cnn(C)c3C)c3cc(Br)ccc3n2)cc1 | inconclusive: 49.1%
33 | CCCC(=O)N1CCN(c2ccc([N+](=O)[O-])cc2Cl)CC1 | inconclusive: 55.4%
34 | Cc1ccc(C)c(C(=O)Nc2nc3ccccc3[nH]2)c1 | inactive: -2.11%
35 | O=C(Nc1ncc(Cc2ccc(SC(F)F)cc2)s1)c1ccc(OC(F)F)cc1 | inconclusive: 32.3%
36 | Cc1c(C(=O)NCCN2CCOCC2)oc2ccc(Br)cc12 | inconclusive: 38.5%
37 | CCCCOC(=O)c1nnc(-c2ccc(Cl)cc2)o1 | inconclusive: 32.5%
38 | O=C(c1cc(COc2cccc3cnccc23)on1)N1CCC(c2ccccc2Cl)C1 (stereo unspecified) | inconclusive: 40.9%
39 | COc1ccc(CNC(=S)Nc2ccc(F)c(Cl)c2)cc1 | inconclusive: 63.7%
40 | COc1ccccc1NC(=O)NNC(=O)c1cc2ccccc2cc1O | inactive: 5.58%
41 | CC(C)(C)C(=O)NC(=S)Nc1ccc(C(F)(F)F)cc1 | inconclusive: 48.8%
42 | COc1ccccc1-c1cc(C(=O)N2CCOCC2)no1 | inconclusive: 50.2%
43 | Cc1cc(OCC(=O)NNC(=O)c2cccs2)ccc1Br | inconclusive: 77.1%
44 | CCOC(=O)[C@H]1[C@H]2COc3ccc(Cl)cc3[C@@H]2N2C(=O)c3ccc(F)cc3NC(=O)[C@@]12C | active: 82.8%
45 | COCC(=O)n1nc(NCc2ccc(OC)cc2)nc1NCc1ccc(OC)cc1 | inactive: 4.63%
46 | N=c1c2c(-c3ccccc3)c(-c3ccccc3)oc2ncn1Cc1ccco1 | inconclusive: 37%

Row | SMILES | activation
47 | COC(=O)c1ccc(OCC(=O)NC2CCCCCC2)cc1 | inconclusive: 31.4%
48 | Cc1ccc(C(=O)NC=C(Cl)Cl)cc1 | inconclusive: 67.5%
49 | CCCOc1c(Br)cc(C(=O)OCC(=O)NC2CC2)cc1OC | inconclusive: 53.8%
50 | CCCN(S(=O)(=O)c1ccc(OCC)cc1)S(=O)(=O)c1cccs1 | inconclusive: 35.6%
51 | O=C(c1ccc2c(=O)n3c(nc2c1)CCCCC3)N1CCN(C(c2ccccc2)c2ccccc2)CC1 | inconclusive: 39.5%
52 | CCc1cc(OCCN2C(=O)NC(C)(C)C2=O)ccc1Cl | inconclusive: 58.8%
53 | Cc1cc(=O)c(C(=O)O)cn1Nc1ccc(F)cc1 | inactive: 1.19%
54 | COc1cc([C@H]2c3[nH]c4ccccc4c3C[C@H]3C(=O)N4[C@@H](c5cc(OC)c(OC)c(OC)c5)c5[nH]c6ccccc6c5C[C@H]4C(=O)N23)cc(OC)c1OC | inactive: 0.41%
55 | COc1ccc(NC(=S)NC(NC(=O)c2ccccc2Cl)C(Cl)(Cl)Cl)c([N+](=O)[O-])c1 (stereo unspecified) | inactive: -0.303%
56 | COc1ccc(CCN(C)Cc2ccc(OCc3ccccc3)c(OC)c2)cc1OC | inactive: 1.68%
57 | Cc1ccc(-c2nc(Nc3cccc(O)c3)c3ccccc3n2)cc1 | inactive: 17.1%
58 | CN(C1CCCCC1)S(=O)(=O)c1ccc(NC(=O)C2CCCCC2)cc1 | inconclusive: 41%
59 | CN1CCN(C(=O)c2cccc(NS(=O)(=O)c3ccc(Br)cc3)c2)CC1 | inactive: 0.767%
60 | CO/N=C/NC(=O)C1=NOC(CNc2ncc(C(F)(F)F)cc2Cl)C1 (stereo unspecified) | inconclusive: 52.1%
61 | COc1ccc(NC(=O)N2CCN(c3cccc(C(F)(F)F)c3)CC2)cc1 | inconclusive: 51.2%
62 | CCOc1ccc(Nc2ncnc3c2cnn3C)cc1 | inconclusive: 45%
63 | O=C(Nc1ccccc1)c1cc2ccccc2[nH]1 | inconclusive: 56.5%
64 | O=C(NCc1ccc(F)cc1)Nc1ccc(Cl)cc1 | active: 80%
65 | COc1ccc(C(=O)CCN2CCCCCC2)cc1 | inactive: 2.23%
66 | O=C(NC1CCCCC1)N1CCN(c2ccccc2Cl)CC1 | inconclusive: 57.4%
67 | CCN(CC)Cc1c(C(=O)N/N=C/c2cccnc2)nnn1-c1nonc1N | inactive: -4.56%
68 | COCCn1c(SCC(=O)NCc2ccc3c(c2)OCO3)nc2ccccc2c1=O | inactive: 4.41%
69 | CCOc1cc(C2C(C#N)=C(N)OC(C)=C2C(C)=O)c(Br)c(Br)c1OC(C)C (stereo unspecified) | inactive: -4.03%

Row | SMILES | activation
70 | Cc1ccccc1C(=O)c1c[nH]c(C(=O)N2CCN(c3ccccc3F)CC2)c1 | inconclusive: 56.9%
71 | CCOC(=O)C(NCc1ccc(F)cc1)(NC(=O)c1ccccc1)C(F)(F)F (stereo unspecified) | inactive: -4.62%
72 | C=CCn1c(-c2cnn(-c3ccccc3)c2N)n[nH]c1=S | inactive: -0.687%
73 | O=c1cc(N2CCCCC2)c(-c2ccccc2)nn1Cc1ccc(F)cc1 | inconclusive: 73%
74 | Cc1ccc(C(=O)CC(SCC(=O)O)c2ccc([N+](=O)[O-])cc2)cc1 (stereo unspecified) | inconclusive: 47.9%
75 | O=C(N/N=C/c1ccc(OCC(=O)N2CCOCC2)cc1)c1ccccc1Cl | inactive: 0.99%
76 | Cc1ccc(OCCCn2c(=O)oc3ccccc32)cc1 | inconclusive: 41.4%
77 | O=C(/C=C/Nc1ccc(F)c(Cl)c1)c1ccccc1 | inconclusive: 51.6%
78 | CCc1cc(/C(Cc2cscn2)=N\O)c(O)cc1O | inactive: 7.66%
79 | CCOC(=O)c1cnc(-c2ccccc2)nc1Oc1ccc(OC)cc1 | inconclusive: 31.7%
80 | Cc1cc(C)c(C)c(S(=O)(=O)N2CCN(C(=O)C3CCC3)CC2)c1C | inconclusive: 33.3%
81 | COc1ccc(Nc2nc(NCc3ccco3)nc(N/N=C/c3ccccc3F)n2)cc1 | inconclusive: 30.2%
82 | O=C1C2C3C=CC(CC3)C2C(=O)N1c1ccccc1F (stereo unspecified) | inactive: -1.29%
83 | CC(CNC(=O)c1cc(Cl)ccc1[N+](=O)[O-])NC(=O)c1cc(Cl)ccc1[N+](=O)[O-] (stereo unspecified) | inactive: -2.25%
84 | O=C(COC(=O)CC1CC2CCC1C2)Nc1ccc(F)cc1 (stereo unspecified) | inconclusive: 64.6%
85 | O=C(Nc1cccc(S(=O)(=O)N2CCOCC2)c1)C(c1ccccc1)N1CCCCC1 (stereo unspecified) | inactive: 11.2%
86 | ONC(=Nc1ccccc1Cl)c1ccccc1Cl | inconclusive: 32%
87 | CCn1c(Oc2ccc(F)cc2)nc2c1c(=O)n(C)c(=O)n2C | inactive: 0.317%
88 | CC(=O)c1ccc(N2CCN(C(=O)CCC(=O)c3cccs3)CC2)cc1 | inactive: 10%
89 | O=C(c1ccc(-n2c(SCc3cc(F)ccc3F)nc3ccccc3c2=O)cc1)N1CCOCC1 | inconclusive: 70.9%
90 | COc1cccc(NS(=O)(=O)c2ccc(Br)s2)c1 | active: 89.2%
91 | CC(=O)/C(=C\Nc1ccc(OCc2ccccc2)cc1)c1ccccc1 | inconclusive: 38.8%
